Results as given in paper PMC9052155.

Protein sequences, listed by entry. Tags and fused reporters are not part of them.
UniProt Q9Y4K3: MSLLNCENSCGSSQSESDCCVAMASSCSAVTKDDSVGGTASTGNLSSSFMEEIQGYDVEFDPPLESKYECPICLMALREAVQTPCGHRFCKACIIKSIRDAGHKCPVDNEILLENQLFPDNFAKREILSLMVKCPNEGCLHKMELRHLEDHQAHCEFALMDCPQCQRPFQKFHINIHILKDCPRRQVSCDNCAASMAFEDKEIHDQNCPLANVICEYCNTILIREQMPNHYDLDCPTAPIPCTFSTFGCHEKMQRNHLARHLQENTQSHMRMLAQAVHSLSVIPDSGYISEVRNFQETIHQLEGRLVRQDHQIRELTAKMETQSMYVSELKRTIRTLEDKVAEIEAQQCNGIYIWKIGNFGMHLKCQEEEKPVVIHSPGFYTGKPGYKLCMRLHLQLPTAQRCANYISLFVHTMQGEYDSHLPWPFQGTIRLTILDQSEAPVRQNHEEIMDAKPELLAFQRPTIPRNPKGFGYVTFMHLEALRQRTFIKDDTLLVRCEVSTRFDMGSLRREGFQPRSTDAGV

Molecular target: HA-tagged β-arr2ΔART (ART motif-deleted β-arrestin2) (rat) (UniProt P29067)
Assay: co-IP; HA-tagged β-arr2 constructs precipitated with anti-HA agarose from HEK-293 lysates (50 mM HEPES pH 7.5, 2 mM EDTA, 250 mM NaCl, 10% glycerol, 0.5% NP-40; 4 °C overnight); partners detected by immunoblot; cells unstimulated or stimulated with isoproterenol (Figures 1C, 1F, 5C)

binding	Substance
binds	tumor necrosis factor receptor–associated factor 6 (endogenous) (from UniProt Q9Y4K3 1-522) (enzyme)
binds	ubiquitin-specific peptidase 20 (endogenous) (from UniProt Q9Y2K6 1-914) (enzyme)

These are yes or no findings as the source states them, for the method shown. Binding seen in cells or lysates may run through a third protein. Binding can be weak; no strength is given.
